The list is a part of this screen's results and no random one: it is rich in T/C values a quarter to a half above the control, in often repeated tests (any T/C) and in doses without a T/C. Further doses and runs are listed elsewhere. T/C is the treated group as % of the vehicle group. Some doses have a count of surviving animals in place of a T/C: the source holds a T/C of zero for them, seemingly a mark for toxic or unscored doses. Some survivor counts are full or nearly so, which does not show that the dose was tolerated: the source hardly ever lists a survival T/C far under the control, and the zero likely stands for such cases as well. Counts of survivors are from the toxicity check (mostly the fifth day) where no day follows; animals may have died later. Schedule codes are those of the source, read here as Q, the interval in days (D) or hours (H), X, the number of doses. Some molecules as drawn cover several salts, stereoisomers or complexes of the source; a dose is that of the sample tested. Where survival is the endpoint, this PubChem deposit counts one and a half times the control or more as active, and values a quarter to a half above the control carry no call in these data; other NCI protocols may use other cut-offs. Some T/C values carry the count of animals alive at the toxicity check (mostly the fifth day); where none is given, no animal had died by that day.
Tested on: L1210 leukemia ip in BDF1 mice, survival T/C
Experiment: NCI In Vivo Anticancer Drug Screen. Data for tumor model L1210 Leukemia (intraperitoneal) in B6D2F1 (BDF1) mice
Details: T/C endpoint: mean survival time, higher T/C = longer survival
[1] = dose: 200.0 mg/kg/injection, schedule: Q01DX009 (ip), vehicle: saline with Tween-80
[2] = dose: 100.0 mg/kg/injection, schedule: Q01DX009 (ip), vehicle: saline
[3] = dose: 100.0 mg/kg/injection, schedule: Q04DX003 (ip), vehicle: saline with Tween-80
[4] = dose: 200.0 mg/kg/injection, schedule: Q04DX003 (ip), vehicle: saline with Tween-80
[5] = dose: 400.0 mg/kg/injection, schedule: Q04DX003 (ip), vehicle: saline with Tween-80
[6] = dose: 200.0 mg/kg/injection, schedule: Q04DX003 (ip), vehicle: saline
[7] = dose: 150.0 mg/kg/injection, schedule: Q01DX001 (ip), vehicle: other
[8] = dose: 300.0 mg/kg/injection, schedule: Q01DX001 (ip), vehicle: other
[9] = dose: 400.0 mg/kg/injection, schedule: Q04DX002 (ip), vehicle: saline with Tween-80
[10] = dose: 400.0 mg/kg/injection, schedule: Q01DX001 (ip), vehicle: saline
[11] = dose: 200.0 mg/kg/injection, schedule: Q01DX001 (ip), vehicle: saline
[12] = dose: 400.0 mg/kg/injection, schedule: Q01DX009 (ip), vehicle: saline
[13] = dose: 100.0 mg/kg/injection, schedule: Q01DX001 (ip), vehicle: saline
[14] = dose: 400.0 mg/kg/injection, schedule: Q04DX002 (ip), vehicle: Klucel (hydroxypropylcellulose) (HPC)
[15] = dose: 100.0 mg/kg/injection, schedule: Q04DX002 (ip), vehicle: Klucel (hydroxypropylcellulose) (HPC)
[16] = dose: 200.0 mg/kg/injection, schedule: Q04DX002 (ip), vehicle: Klucel (hydroxypropylcellulose) (HPC)

SMILES: O=Cc1nccn1Cc1ccccc1
- survivor count [1]: 3 of 6
- survivor count (dose: 400.0 mg/kg/injection, schedule: Q01DX009 (ip), vehicle: saline with Tween-80): 0 of 6

SMILES: COc1cccc(C(=O)NC[n+]2ccccc2)c1
- survivor count [2]: 4 of 6

SMILES: O=S(=O)(N1CCCCC1)N1CCNCC1
- survivor count [3]: 0 of 6
- survivor count [4]: 0 of 6
- survivor count [5]: 0 of 6

SMILES: C=C/C=C1\CCOC1=O
- T/C (dose: 200.0 mg/kg/injection, schedule: Q04DX002 (ip), vehicle: saline): 127 % of control

SMILES: COC(=O)C(C)CN1CCCC1 (centres undefined)
- survivor count (dose: 100.0 mg/kg/injection, schedule: Q04DX003 (ip), vehicle: saline): 3 of 6
- survivor count [6]: 0 of 6
- survivor count (dose: 400.0 mg/kg/injection, schedule: Q04DX003 (ip), vehicle: saline): 0 of 6

SMILES: CNC(=O)Oc1cccc(N(C)C)c1
- survivor count (dose: 38.0 mg/kg/injection, schedule: Q01DX001 (ip), vehicle: other): 1 of 6
- survivor count (dose: 75.0 mg/kg/injection, schedule: Q01DX001 (ip), vehicle: other): 0 of 6
- survivor count [7]: 0 of 6
- survivor count [8]: 0 of 6

SMILES: CN(C)P(=O)(N(C)C)N(C)C.C[CH2][Ge]([CH2]C)[CH2]C.[Li].c1ccc(B(c2ccccc2)c2ccccc2)cc1
- survivor count (dose: 100.0 mg/kg/injection, schedule: Q04DX002 (ip), vehicle: saline with Tween-80): 0 of 3
- survivor count (dose: 200.0 mg/kg/injection, schedule: Q04DX002 (ip), vehicle: saline with Tween-80): 0 of 3
- survivor count [9]: 0 of 3

SMILES: O=C(O)CCCCc1ccc(CCCCC(=O)O)cc1
- survivor count [1]: 0 of 6
- survivor count (dose: 400.0 mg/kg/injection, schedule: Q04DX003 (ip), vehicle: Klucel (hydroxypropylcellulose) (HPC)): 3 of 6

SMILES: N#CSC/C(Br)=C/Br
- survivor count [3]: 1 of 6
- survivor count [4]: 0 of 6
- survivor count [5]: 0 of 6

SMILES: CCC(=O)NC
- T/C (dose: 1250.0 mg/kg/injection, schedule: Q01DX015 (ip), vehicle: water): 147 % of control [5 of 6 alive]
- survivor count (dose: 1500.0 mg/kg/injection, schedule: Q01DX015 (ip), vehicle: water): 6 of 6

SMILES: COc1cc(C=Nc2cccc(C(=O)O)c2)ccc1N(CCCl)CCCl
- survivor count (dose: 100.0 mg/kg/injection, schedule: Q01DX001 (ip), vehicle: carboxymethylcellulose (CMC)): 1 of 4
- survivor count (dose: 200.0 mg/kg/injection, schedule: Q01DX001 (ip), vehicle: carboxymethylcellulose (CMC)): 0 of 4
- survivor count (dose: 400.0 mg/kg/injection, schedule: Q01DX001 (ip), vehicle: carboxymethylcellulose (CMC)): 0 of 4

SMILES: NCCN1C(c2ccccc2)C1c1ccccc1 (centres undefined)
- survivor count [6]: 3 of 6

SMILES: Nc1nnnc2c1ncn2C1CCCC1
- survivor count [7]: 0 of 6
- survivor count [8]: 0 of 6

SMILES: c1nc(Sc2ncnc3nc[nH]c23)c2[nH]cnc2n1
- T/C (dose: 75.0 mg/kg/injection, schedule: Q01DX015 (ip), vehicle: other): 126 % of control
- T/C (dose: 150.0 mg/kg/injection, schedule: Q01DX015 (ip), vehicle: saline): 137 % of control [5 of 6 alive]
- T/C (dose: 300.0 mg/kg/injection, schedule: Q01DX015 (ip), vehicle: saline): 142 % of control
- T/C [10]: 125 % of control
- T/C (dose: 534.0 mg/kg/injection, schedule: Q01DX001 (ip), vehicle: saline): 125 % of control
- T/C (dose: 800.0 mg/kg/injection, schedule: Q01DX001 (ip), vehicle: saline): 126 % of control

SMILES: NCCCCC(N)C(=O)Nc1ccc(Cc2ccc(NC(=O)C(N)CCCCN)cc2)cc1 (centres undefined)
- survivor count [11]: 1 of 4
- survivor count [10]: 0 of 4

SMILES: CC(NCCN1CC1)C1CC1 (centres undefined)
- T/C (dose: 10.0 mg/kg/injection, schedule: Q01DX009 (ip), vehicle: saline): 130 % of control
- T/C (dose: 40.0 mg/kg/injection, schedule: Q01DX009 (ip), vehicle: saline): 143 % of control
- survivor count [2]: 0 of 6
- survivor count (dose: 200.0 mg/kg/injection, schedule: Q01DX009 (ip), vehicle: saline): 0 of 6
- survivor count [12]: 0 of 6

SMILES: ClC1=C(Cl)C(Cl)(Cl)SS1
- survivor count [7]: 1 of 6
- survivor count [8]: 1 of 6

SMILES: c1ccc(COCC[P+](c2ccccc2)(c2ccccc2)c2ccccc2)cc1
- survivor count (dose: 10.0 mg/kg/injection, schedule: Q01DX001 (ip), vehicle: saline): 4 of 4
- survivor count (dose: 40.0 mg/kg/injection, schedule: Q01DX001 (ip), vehicle: saline): 0 of 4
- survivor count (dose: 50.0 mg/kg/injection, schedule: Q01DX001 (ip), vehicle: saline): 0 of 4
- survivor count (dose: 80.0 mg/kg/injection, schedule: Q01DX001 (ip), vehicle: saline): 0 of 4
- survivor count [13]: 0 of 4
- survivor count [11]: 0 of 4
- survivor count [10]: 0 of 4

SMILES: CC([NH-])C[NH-].[Cl][Pd][Cl] (centres undefined)
- survivor count (dose: 25.0 mg/kg/injection, schedule: Q04DX002 (ip), vehicle: Klucel (hydroxypropylcellulose) (HPC)): 3 of 3

SMILES: O=C(C[n+]1cccc(CO)c1)c1ccc(-c2ccc(C(=O)C[n+]3cccc(CO)c3)cc2)cc1
- survivor count [13]: 0 of 6
- survivor count [11]: 0 of 6
- survivor count [10]: 0 of 6

SMILES: COc1ccccc1-n1c(O)c(N=Nc2ccc(Br)cc2)c(=O)n(-c2ccc(Cl)cc2)c1=S
- survivor count (dose: 400.0 mg/kg/injection, schedule: Q01DX001 (ip), vehicle: Klucel (hydroxypropylcellulose) (HPC)): 2 of 6

SMILES: [O]=[Sn]([c]1ccccc1)[c]1ccccc1
- survivor count (dose: 25.6 mg/kg/injection, schedule: Q04DX002 (ip), vehicle: saline with Tween-80): 0 of 3
- survivor count (dose: 160.0 mg/kg/injection, schedule: Q04DX002 (ip), vehicle: saline with Tween-80): 0 of 3
- survivor count [9]: 0 of 3

SMILES: O=C(Nc1ccccc1)Oc1c(Cl)c(Cl)c(Cl)c(Cl)c1Cl
- survivor count [14]: 0 of 3

SMILES: Clc1[nH]nc2ccccc12
- survivor count (dose: 200.0 mg/kg/injection, schedule: Q01DX001 (ip), vehicle: saline sonified): 6 of 6
- survivor count (dose: 400.0 mg/kg/injection, schedule: Q01DX001 (ip), vehicle: saline sonified): 5 of 6

SMILES: CCCCN(C(=O)OCC)P(=O)(OCC)OCC
- survivor count [12]: 0 of 6

SMILES: CCC(C)[P+](c1ccccc1)(c1ccccc1)c1ccccc1 (centres undefined)
- survivor count (dose: 28.0 mg/kg/injection, schedule: Q01DX015 (ip), vehicle: carboxymethylcellulose (CMC)): 3 of 6
- survivor count (dose: 50.0 mg/kg/injection, schedule: Q04DX002 (ip), vehicle: Klucel (hydroxypropylcellulose) (HPC)): 2 of 3
- survivor count (dose: 56.0 mg/kg/injection, schedule: Q01DX015 (ip), vehicle: carboxymethylcellulose (CMC)): 0 of 6
- survivor count [15]: 2 of 3
- survivor count [16]: 0 of 3
- survivor count [14]: 1 of 3

SMILES: O=C(CF)CCl
- survivor count (dose: 7.0 mg/kg/injection, schedule: Q01DX009 (ip), vehicle: saline): 0 of 6
- survivor count (dose: 14.0 mg/kg/injection, schedule: Q01DX009 (ip), vehicle: saline): 3 of 6
- survivor count (dose: 28.0 mg/kg/injection, schedule: Q01DX009 (ip), vehicle: saline): 0 of 6
- survivor count (dose: 56.0 mg/kg/injection, schedule: Q04DX003 (ip), vehicle: saline): 0 of 6

SMILES: N#CC1(N2CCC3(CC2)OCCO3)CCCCC1
- survivor count (dose: 50.0 mg/kg/injection, schedule: Q01DX009 (ip), vehicle: Klucel (hydroxypropylcellulose) (HPC)): 0 of 6
- survivor count (dose: 50.0 mg/kg/injection, schedule: Q04DX003 (ip), vehicle: Klucel (hydroxypropylcellulose) (HPC)): 0 of 6
- survivor count [15]: 0 of 3
- survivor count [16]: 1 of 3
- survivor count [14]: 0 of 3
